{
  "source": "paper PMC7819943",
  "about": "“Rice protein-binding microarrays: a tool to detect cis-acting elements near promoter regions in rice”",
  "note": "This is one part of the list.",
  "data": [
    {"biological_target": "T1, OsSMF1 (Oryza sativa, UniProt Q6ZLB0 1-436)", "T1 sequence": "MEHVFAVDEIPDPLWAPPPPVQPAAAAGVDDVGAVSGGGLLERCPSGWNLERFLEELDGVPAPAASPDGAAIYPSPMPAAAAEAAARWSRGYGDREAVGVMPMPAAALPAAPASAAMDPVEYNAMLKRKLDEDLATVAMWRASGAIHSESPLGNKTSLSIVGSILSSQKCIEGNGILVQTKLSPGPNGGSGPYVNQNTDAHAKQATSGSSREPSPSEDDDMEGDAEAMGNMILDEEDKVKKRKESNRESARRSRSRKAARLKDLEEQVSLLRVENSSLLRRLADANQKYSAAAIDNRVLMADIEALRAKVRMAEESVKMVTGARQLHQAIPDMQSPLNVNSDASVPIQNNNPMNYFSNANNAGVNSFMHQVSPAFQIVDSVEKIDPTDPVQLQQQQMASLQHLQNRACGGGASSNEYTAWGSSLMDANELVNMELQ", "test": "protein-binding microarray (RPBM); PBS, 2% BSA, 51.3 ng/ul salmon testes DNA, 50 uM zinc acetate, 200 nM TF, 25 C, 1 h; high values mean tight binding", "details": "protein: recombinant; tags: N-terminal polyhistidine and DsRed monomer fusion (pET32a); chain copies: 2; label: CyDye5-dUTP incorporated in the synthesized complementary strand; 3' TTTTT single-stranded linker to array surface; dsDNA, one strand shown", "in_short": "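Transcription factors were made in E. coli BL21-CodonPlus as N-terminal fusions to a polyhistidine tag and DsRed, then purified on Ni–NTA. After primer extension with Cy5-dUTP and blocking with 2% BSA, a custom Agilent array was exposed for 1 h at 25 °C to 200 nM protein in PBS, 2% BSA, salmon testes DNA and 50 µM zinc acetate. Washed arrays were scanned on an Axon 4000B, and the binding signal is per-feature fluorescence intensity in arbitrary units.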", "values": [
      {"sequence": "CTGGTGCGCGAGCGCGACCCCGTCTGCGCCGGCGGTGGAGCGGAGTCACCTAGTGCAG", "binding signal": "3500 fluorescence intensity (a.u.)"},
      {"sequence": "GGTACAGTACGTATGACTAGGTACAAGTAGTTTAGGTTGACGGAGTCACCTAGTGCAG", "binding signal": "3950 fluorescence intensity (a.u.)"},
      {"sequence": "TAGCAGTTTCGGTAGGTTGTGTGGCGTGGTCACCTTTGCTCGGAGTCACCTAGTGCAG", "binding signal": "3790 fluorescence intensity (a.u.)"},
      {"sequence": "GAATCTACTGGGCATTTCGTCAAACAGCTCATCTGCGCCCCGGAGTCACCTAGTGCAG", "binding signal": "3590 fluorescence intensity (a.u.)"},
      {"sequence": "CGCCTCGTCCATGTCTGGATGTCGCTGTCGTCACGTCTCCCGGAGTCACCTAGTGCAG", "binding signal": "4400 fluorescence intensity (a.u.)"},
      {"sequence": "CCTATTCCTTGTCACCACTGCCCAGCCCATACACGGCCCACGGAGTCACCTAGTGCAG", "binding signal": "3870 fluorescence intensity (a.u.)"},
      {"sequence": "TCCCTCCTTGCTAACTAGGATGTCACGTCAGGACTTGAACCGGAGTCACCTAGTGCAG", "binding signal": "3570 fluorescence intensity (a.u.)"},
      {"sequence": "TCTCCACGTATCCCCAGTTGCCGACGTGGACGGTCAGATCCGGAGTCACCTAGTGCAG", "binding signal": "17800 fluorescence intensity (a.u.)"},
      {"sequence": "ATTACATTGTCTCAACAATTTCTCCACATACTCATGTCAACGGAGTCACCTAGTGCAG", "binding signal": "3520 fluorescence intensity (a.u.)"},
      {"sequence": "TGTTAACCAAATAGCTCTAGATACCGCGGAATAGACGTGACGGAGTCACCTAGTGCAG", "binding signal": "3290 fluorescence intensity (a.u.)"},
      {"sequence": "TATATGAACAACAAGGATATATATCTTGCTGATGACAGTGCGGAGTCACCTAGTGCAG", "binding signal": "3720 fluorescence intensity (a.u.)"},
      {"sequence": "TGGGCTGAAGTTGTTTGTAGCGCATCTGTCATCTGTCTCGCGGAGTCACCTAGTGCAG", "binding signal": "4510 fluorescence intensity (a.u.)"},
      {"sequence": "TTCTTGACTTCTTGGTGAGGAAACCTCATTTCGGCTGAAGCGGAGTCACCTAGTGCAG", "binding signal": "28800 fluorescence intensity (a.u.)"},
      {"sequence": "GATAGTTTCACATCACTGACCATGAACTTTTCTGACACAGCGGAGTCACCTAGTGCAG", "binding signal": "3490 fluorescence intensity (a.u.)"},
      {"sequence": "AATCACTTGAAGTTTGACATTCCACCTCATAAGTTATTTTCGGAGTCACCTAGTGCAG", "binding signal": "4460 fluorescence intensity (a.u.)"},
      {"sequence": "TGTAAAACTAAGCTTTGACAACGACGCTGCGAGCTAGCAACGGAGTCACCTAGTGCAG", "binding signal": "3630 fluorescence intensity (a.u.)"},
      {"sequence": "GCTTGTCCTTTTCAATTAGACATGTTGACATGGCAGTAGGCGGAGTCACCTAGTGCAG", "binding signal": "3520 fluorescence intensity (a.u.)"},
      {"sequence": "CAGAAACTAATGCGGCTGAGTTCGTTTCTCGCCTTTCCCACGGAGTCACCTAGTGCAG", "binding signal": "3340 fluorescence intensity (a.u.)"},
      {"sequence": "GCACAACTGGGCATGACTGACATTATTGTCGAAATGGATGCGGAGTCACCTAGTGCAG", "binding signal": "3570 fluorescence intensity (a.u.)"},
      {"sequence": "CTCATGTGACATGCCACATAGGAGTTGACTCATTTTCTTTCGGAGTCACCTAGTGCAG", "binding signal": "6680 fluorescence intensity (a.u.)"},
      {"sequence": "GATCCTGAGGTAAGTGACGAGTCAATGAACTGTGCACAGGCGGAGTCACCTAGTGCAG", "binding signal": "3280 fluorescence intensity (a.u.)"},
      {"sequence": "GCTGCATGCAGTTCATCGTGTCCTGCCGTGGCTACAGCGCCGGAGTCACCTAGTGCAG", "binding signal": "3180 fluorescence intensity (a.u.)"},
      {"sequence": "CGCCGATCTTCTCCGAGGCTGACTCGGTCGATCCAGAGGTCGGAGTCACCTAGTGCAG", "binding signal": "3410 fluorescence intensity (a.u.)"},
      {"sequence": "GCCGCCGCCGTGGCCGCCGAGGCCATGCTGTTCGGCGTCGCGGAGTCACCTAGTGCAG", "binding signal": "3470 fluorescence intensity (a.u.)"},
      {"sequence": "CCTTCCACTTTTGGGCCGGCCCAGGTTTGCCACGGCCCGGCGGAGTCACCTAGTGCAG", "binding signal": "3160 fluorescence intensity (a.u.)"},
      {"sequence": "CTTTCTTTGAGCCCAGCTGACGTCTCCCGCAACACCGCATCGGAGTCACCTAGTGCAG", "binding signal": "4770 fluorescence intensity (a.u.)"},
      {"sequence": "GGGGAGGAGGAGGTGCTGTTGCTCGATGGCTGTGCCGTGGCGGAGTCACCTAGTGCAG", "binding signal": "4170 fluorescence intensity (a.u.)"},
      {"sequence": "GGAGGAGGGAATGATCCAGAGCGTTGTACCTGGTGTTGGTCGGAGTCACCTAGTGCAG", "binding signal": "3740 fluorescence intensity (a.u.)"},
      {"sequence": "AGGCCGCGACGCAAATGGTGCGGTCACGCACACCGAAGTGCGGAGTCACCTAGTGCAG", "binding signal": "3260 fluorescence intensity (a.u.)"},
      {"sequence": "TCAAGTCCAATTCATGTTTCATGCCACGTTCGCCGTGCCGCGGAGTCACCTAGTGCAG", "binding signal": "7420 fluorescence intensity (a.u.)"},
      {"sequence": "TAAAGTTTCAATCTACTTTGAGAGATCTTTGATTTGTGTTCGGAGTCACCTAGTGCAG", "binding signal": "29700 fluorescence intensity (a.u.)"},
      {"sequence": "AAGGAGAGGGGAGAGAGATGAAGGGGAGTCGGGGAGAGAGCGGAGTCACCTAGTGCAG", "binding signal": "3620 fluorescence intensity (a.u.)"},
      {"sequence": "GCGGTTGAGGGATGACGACATGATGTGAGGAGAGAGGAACCGGAGTCACCTAGTGCAG", "binding signal": "3400 fluorescence intensity (a.u.)"},
      {"sequence": "CATCCCGCTCGCCGGCGTGCACCAGCGATCGGGAGAGCAGCGGAGTCACCTAGTGCAG", "binding signal": "3580 fluorescence intensity (a.u.)"},
      {"sequence": "CACAACCACTCTTTCCCTAACCCAATGACTAAGATGTAAGCGGAGTCACCTAGTGCAG", "binding signal": "3860 fluorescence intensity (a.u.)"},
      {"sequence": "CTTCCGTCAATTCTCGATCGTTTTCCGTCCGCCTTGATCGCGGAGTCACCTAGTGCAG", "binding signal": "7830 fluorescence intensity (a.u.)"},
      {"sequence": "ACTTTTATCACTGTCCATCTCCTCTATGCCGTGGACATGACGGAGTCACCTAGTGCAG", "binding signal": "3540 fluorescence intensity (a.u.)"},
      {"sequence": "GCCTGCGACACCTTATCCAGGGTCCCACTCGTCATAATCTCGGAGTCACCTAGTGCAG", "binding signal": "3850 fluorescence intensity (a.u.)"},
      {"sequence": "AAGCGGCGCGCATCCGATGGGCGACGCGTGTGCCCGCTCTCGGAGTCACCTAGTGCAG", "binding signal": "3140 fluorescence intensity (a.u.)"},
      {"sequence": "GCGCCAAAGAATCCAAAACAAAGACATCATCGCATCAGCCCGGAGTCACCTAGTGCAG", "binding signal": "4480 fluorescence intensity (a.u.)"},
      {"sequence": "GGGGATGAGCATTAGGTGTCTCGTCGATGATGTGTCGCGCCGGAGTCACCTAGTGCAG", "binding signal": "9620 fluorescence intensity (a.u.)"},
      {"sequence": "TCGTATCCAGAAGGTTCAGCATCACGTGTCCTCCTGGCCCCGGAGTCACCTAGTGCAG", "binding signal": "4090 fluorescence intensity (a.u.)"}
    ]}
  ]
}
